Measurements from PubChem BioAssay AID1347076 (National Center for Advancing Translational Sciences (NCATS), 2019).
The campaign covered roughly 400,000 compounds. About 13,000 (3.2%) were called active. The shares of active, inactive and inconclusive entries below differ from those in the screen. The call rests on the fitted dose curve; in most records, active means well fitted cell-killing curve with a large enough effect; inconclusive means small, poorly fitted or top-dose-only effect, or effect the other way; inactive means flat fitted curve, though single readings scatter. Potencies of inconclusive entries are doubtful fits and often do not repeat.

assay: qHTS assay for MDR1-selective chemotherapeutics: Primary screen using the drug-selected MDR subline cells KB-V1; conditions: KB-V1 MDR cells viability, CellTiter-Glo, 72 h; series mostly up to 46.1 µM; further: nearly all actives have a fitted effect of over 60% in size
In short: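 Cytotoxicity toward P-gp-expressing KB-V1 cells was determined as loss of CellTiter-Glo luminescence after 72 h at 37 degrees C. Compounds were tested in quantitative HTS format across a concentration range, with curves fitted to normalized data.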
Potency means the concentration at half of the fitted maximal effect.

Row | Structure (SMILES) | Potency
1 | Cc1cn(C)c(CC(=O)NCc2ccc(F)cc2)c1C(=O)O | inconclusive: 18.4 µM [rising, single point]
2 | Cc1cc(N2CCN(C(C(=O)NC3CCCC3)C(C)(C)C)CC2)c2ccccc2n1 (stereo not given) | inconclusive: 18.4 µM [cytotoxic, partial curve]
3 | O=C(Nc1cccc(-c2cccc(F)c2)c1)C1CCN(CC2CCOC2)CC1 (stereo not given) | inconclusive: 23.1 µM [cytotoxic, partial curve, poor fit]
4 | O=C(NCCS(=O)(=O)N1CCN(c2ccccc2F)CC1)c1c(F)cccc1F | inconclusive: 29.1 µM [cytotoxic, single point]
5 | COc1ccc(C(=O)c2ccc(OC)cc2OC)cc1 | inconclusive: 29.1 µM [cytotoxic, single point]
6 | Cc1cccc(OCCC(=O)OCC(=O)Nc2c(C)nn(-c3ccccc3)c2C)c1 | inconclusive: 32.6 µM [rising, single point]
7 | CC(C)(C)NC(=O)C(c1ccc(C#N)cc1)n1c(=O)c(-c2ccccc2)nc2ccccc21 (stereo not given) | inconclusive: 7.31 µM [cytotoxic, partial curve, poor fit]
8 | Cc1nn(-c2ccccc2)c(Cl)c1/C=N/Nc1nnc(C)c(=O)[nH]1 | inconclusive: 20.6 µM [cytotoxic, single point]
9 | CN(c1ccccc1)S(=O)(=O)c1cc(C(=O)N2CCN(c3ncccn3)CC2)ccc1Cl | active: 2.91 µM
10 | CC(C)(C)c1ccc(S(=O)(=O)Nc2ccc(C(O)(C(F)(F)F)C(F)(F)F)cc2)cc1 | inconclusive: 29.1 µM [cytotoxic, single point]
11 | COc1cccc(C2CC(c3ccccc3)=NN2S(=O)(=O)c2ccccc2)c1OC (stereo not given) | inconclusive: 5.8 µM [cytotoxic, partial curve]
12 | O=C(O)C(c1ccccc1)C(O)C1CC=CCC1 (stereo not given) | inconclusive: 14.6 µM [rising, partial curve, poor fit]
13 | O=C(CSc1nnc(N2CCCC2)n1-c1cccc(Cl)c1)N1CCN(c2ccccn2)CC1 | inconclusive: 6.51 µM [cytotoxic, partial curve, poor fit]
14 | O=C(CCCCCN1C(=O)CCC1=O)Nc1ccc(Br)cc1F | inconclusive: 20.6 µM [cytotoxic, partial curve, poor fit]
15 | CC(C)(C)OC(=O)N1C(=O)[C@](OC(=O)c2ccccc2)(c2ccccc2)c2cccc(F)c21 | inconclusive: 18.4 µM [cytotoxic, partial curve]
16 | Cc1cc(F)ccc1NC(=O)Cn1c(C)csc1=O | inactive
17 | Cc1cccc(-c2nc(CS(=O)CC(=O)N3CC(C)CC(C)C3)c(C)o2)c1 (stereo not given) | inconclusive: 3.66 µM [cytotoxic, partial curve, poor fit]
18 | CCOC(=O)c1cc(C#N)c(N2CCN(C(=O)c3ccccc3)CC2)nc1C(F)(F)F | active: 20.6 µM
19 | O=S(=O)(NCCC1=CCCCC1)c1ccc(OC(F)(F)F)cc1 | inactive
20 | COc1ccccc1NC(=O)COc1ccc(Br)cc1CO | inconclusive: 8.2 µM [cytotoxic, partial curve]
21 | O=C(Nc1ccc(N2CCC(N3CCCCC3)CC2)c(C(=O)O)c1)c1ccccc1 | inconclusive: 11.6 µM [rising, partial curve]
22 | O=C(CSc1nnc(CNC(=O)c2ccccc2F)o1)Nc1ccc2c(c1)OCO2 | inconclusive: 29.1 µM [rising, single point]

Row | Structure (SMILES) | Potency
23 | Cc1ccc(C)c(N=Nc2nc3ccccc3n2C)c1 | active: 14.6 µM
24 | C[C@@H]1Cn2cnc(C(=O)N[C@@H](Cc3c[nH]c4ccccc34)C(=O)OC(C)(C)C)c2C(=O)N1 | inactive
25 | CCOc1ccc(N(CC(=O)NCCc2ccc(F)cc2)S(=O)(=O)c2ccccc2)cc1 | inconclusive: 5.8 µM [cytotoxic, full curve]
26 | CCOC(=O)C1=C(N)Oc2cc(O)ccc2C1c1ccccc1 (stereo not given) | inconclusive: 18.4 µM [cytotoxic, single point]
27 | Cc1ccccc1NC(=O)c1ccc(C)c(S(=O)(=O)Nc2ccccn2)c1 | inconclusive: 18.4 µM [cytotoxic, partial curve, poor fit]
28 | Cc1cccc(C)c1NC(=O)CN | inconclusive: 25.9 µM [rising, single point]
29 | C=CCN(c1ccccc1)S(=O)(=O)c1cccc(C(=O)NCC(c2ccc(OC)cc2)N2CCCCC2)c1 (stereo not given) | inconclusive: 6.51 µM [cytotoxic, partial curve, poor fit]
30 | COC(=O)[C@]12CCCCC=C1N(Cc1cccc3ccccc13)C(=O)[C@H](CC(=O)NCCc1ccccc1OC)C2 | inconclusive: 29.1 µM [cytotoxic, partial curve, poor fit]
31 | NC(=S)N/N=C1\CCSc2ccc(Cl)cc21 | inconclusive: 7.31 µM [cytotoxic, partial curve, poor fit]
32 | O=C(Nc1cccnc1)c1cc(-c2ccc(Br)cc2)nc2ccccc12 | inactive
33 | Cc1noc(C)c1CC(=O)N1CCCC(C(=O)c2ccc(C(C)(C)C)cc2)C1 (stereo not given) | inconclusive: 29.1 µM [cytotoxic, single point]
34 | CC(C)(C)C1CCc2c(sc(NC(=O)c3cccc(Cl)c3)c2C(N)=O)C1 (stereo not given) | inactive
35 | COc1ccc(CCC(=O)OCC(=O)Nc2c(C)n(C)n(-c3ccccc3)c2=O)cc1 | inconclusive: 6.51 µM [rising, partial curve, poor fit]
36 | CCOC(=O)c1c(C)nc2sc3c(=O)n(-c4ccc(C)cc4)cnc3c2c1-c1ccc(OC)cc1 | inactive
37 | CC(C)c1nnc(NC(=O)CCC(=O)NC2CCCc3ccccc32)s1 (stereo not given) | inconclusive: 25.9 µM [cytotoxic, partial curve, poor fit]
38 | CN(C)S(=O)(=O)c1ccc(N2CCCC2)c(C(=O)N2CCN(c3ccc([N+](=O)[O-])cc3)CC2)c1 | inactive
39 | Cc1nnsc1C(=O)N/N=C/c1ccccc1 | inactive
40 | COc1ccc(/C=N/N2C(=O)CSC2=S)cc1 | inactive
41 | Cn1c(SCC(=O)Nc2ccccc2)nc2ccccc2c1=O | inconclusive: 23.1 µM [cytotoxic, single point]
42 | CC(=O)Nc1ccc(S(=O)(=O)NCC(=O)OCC(=O)N2CCCc3ccccc32)cc1 | inconclusive: 29.1 µM [rising, single point]
43 | Cc1ccc(C(=O)COC(=O)CN2C(=O)C3C4C=CC(C4)C3C2=O)cc1C (stereo not given) | inconclusive: 29.1 µM [rising, single point]
44 | COc1ccc(OCc2nnc(SCC(=O)Nc3ccccc3F)o2)cc1 | inconclusive: 16.4 µM [rising, single point]

Row | Structure (SMILES) | Potency
45 | O=C1Nc2ccccc2/C1=N\N1CCOCC1 | inconclusive: 18.4 µM [rising, single point]
46 | COc1ccc2c(C)cc(SCC(=O)NCCN3C(=O)CSC3=O)nc2c1 | inconclusive: 14.6 µM [cytotoxic, partial curve]
47 | Cc1cc(-c2ccccc2)cc(=O)[nH]1 | inactive
48 | CC1(C)CC(=O)c2sc(NC(=O)c3ccc4ncsc4c3)nc2C1 | inconclusive: 18.4 µM [cytotoxic, single point]
49 | COc1ccccc1Nc1nnc(SCC(=O)N2CC(=O)Nc3ccccc32)s1 | inconclusive: 1.84 µM [rising, full curve]
50 | CCOC(=O)c1[nH]cnc1C(=O)Nc1ccccc1C | inconclusive: 23.1 µM [cytotoxic, single point]
51 | CCc1ccc(/C=C2/SC(=S)N(CCC(=O)Nc3cccc(C(=O)O)c3)C2=O)cc1 | inconclusive: 29.1 µM [rising, single point]
52 | COc1ccc2cc3cc(C(=O)NCc4ccccn4)oc3nc2c1 | inconclusive: 35.5 µM [cytotoxic, single point]
53 | O=C(COc1ncnc2sccc12)Nc1cccc(S(=O)(=O)N2CCCC2)c1 | inconclusive: 5.17 µM [rising, partial curve]
54 | Nc1c(-c2ccccc2)c(CSc2nc3ccccc3[nH]2)nn1-c1ccc(C(=O)O)cc1 | inconclusive: 0.731 µM [rising, full curve, poor fit]
55 | Cc1nc2ccccc2c(=O)n1-c1ccc(NS(=O)(=O)c2ccccc2)cc1 | inconclusive: 29.1 µM [cytotoxic, single point]
56 | Cc1cc([N+](=O)[O-])nn1Cc1ccc(C(=O)N/N=C/c2ccc(F)cc2)cc1 | inactive
57 | CCOc1ccc(S(=O)(=O)N2CCN(C(=O)c3cc(C4CC4)nn3-c3ccccc3)CC2)cc1 | inconclusive: 1.64 µM [cytotoxic, partial curve]
58 | O=C(O)/C=C(/c1ccccc1)C(F)(F)F | inconclusive: 23.1 µM [rising, single point]
59 | COc1cc(OC)nc(NC(=O)CN2CCN(c3ccc(F)cc3)CC2)n1 | active: 23.1 µM
60 | COc1ccc(-c2nnc(NC(=O)c3ccc(S(=O)(=O)N4COCC4(C)C)cc3)o2)cc1 | inconclusive: 9.2 µM [cytotoxic, partial curve, poor fit]
61 | CCn1c(/C=C/c2ccccc2[N+](=O)[O-])nc2ccccc2c1=O | inconclusive: 25.9 µM [cytotoxic, partial curve, poor fit]
62 | O=C(NC1CCCC1)C(c1ccccn1)N(C(=O)c1csnn1)C1CCCCC1 (stereo not given) | inactive
63 | O=C(C1CCCN(S(=O)(=O)c2ccccc2)C1)N1CCCc2ccccc21 (stereo not given) | inactive
64 | COc1ccc(NC(=O)c2csc3c2CCCC3)cc1 | inactive
65 | O=C(c1ccc([N+](=O)[O-])s1)N1CCCc2ccccc21 | inconclusive: 29.1 µM [cytotoxic, single point]

Already shown: entries from further up.
Row | Structure (SMILES) | Potency
48 | CC1(C)CC(=O)c2sc(NC(=O)c3ccc4ncsc4c3)nc2C1 | inconclusive: 18.4 µM [cytotoxic, single point]
49 | COc1ccccc1Nc1nnc(SCC(=O)N2CC(=O)Nc3ccccc32)s1 | inconclusive: 1.84 µM [rising, full curve]
50 | CCOC(=O)c1[nH]cnc1C(=O)Nc1ccccc1C | inconclusive: 23.1 µM [cytotoxic, single point]
51 | CCc1ccc(/C=C2/SC(=S)N(CCC(=O)Nc3cccc(C(=O)O)c3)C2=O)cc1 | inconclusive: 29.1 µM [rising, single point]
52 | COc1ccc2cc3cc(C(=O)NCc4ccccn4)oc3nc2c1 | inconclusive: 35.5 µM [cytotoxic, single point]
